Source: the supplement of paper PMC5407854, “Inhibitor of ppGalNAc-T3-mediated O-glycosylation blocks cancer cell invasiveness and lowers FGF23 levels” (eLife, 2017)
The other results are listed elsewhere or left out. Small differences around the control level are noise.

These compounds were tested on ppGalNAc-T2 sensor (assay: T2 sensor activation Q score (MG/GFP ratio z-score vs DMSO controls) (SD units); higher = more sensor activation (inhibition of ppGalNAc-T2 glycosylation)). Details: HEK293 sensor cells; 10 µM; 6 h.
Procedure: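 Cells were treated with compound at 10 uM for 6 h, then MG/GFP ratio was read by flow cytometry (10,000 cells per well, duplicate wells). Q = (R - R_neg)/SD_neg relative to DMSO vehicle controls; the signal rises when the glycosyltransferase is inhibited.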

Row | SMILES | T2 sensor activation Q score
1 | COc1ccc(CC(=O)Nc2cccc(F)c2)cc1 | 1.88
2 | NC(=O)C(=O)Nc1cccc(Cl)c1Cl | -0.8
3 | O=C(Nc1ccc(F)cc1)Nc1cccc(Br)c1 | 0.915
4 | Cc1cccc(N2C(=O)CC(N3CCOCC3)C2=O)c1 (centres undefined) | -0.505
5 | O=C(C(c1ccccc1)c1ccccc1)N1CCOCC1 | -0.615
6 | CCc1c(C)nc(N)nc1N1CCOCC1 | -0.265
7 | O=C(Cn1ccnc1)c1ccc(Cl)cc1Cl | -0.645
8 | O=C(Nc1ccc(F)cc1)Nc1ccc(Cl)cc1 | -1.48
9 | Cc1cccc(C(=O)NCc2ccncc2)c1 | -0.73
10 | CC(=O)c1cccc(NC(=O)c2ccccc2-c2ccccc2C(=O)O)c1 | -1.03
11 | Clc1ccccc1CN1CCOCC1 | 0.745
12 | O=c1c(CN2CCN(c3ccccc3)CC2)coc2ccc(Cl)cc12 | 0.565
13 | CCCNc1nc(OC)nc(OC)n1 | -0.05
14 | COc1ccc(CN2CCN(Cc3ccc4c(c3)OCO4)CC2)cc1 | 0.12
15 | Cc1ccc(SCC(=O)N2CCN(Cc3ccccc3)CC2)cc1 | -1.14
16 | O=C(O)CNc1ccccc1C(=O)O | 0.595
17 | Cc1ccc2[nH]c(C)c(CCC(=O)NC3CCCCC3)c2c1 | -0.365
18 | CC(NC(=O)C1CCCCC1C(=O)O)c1ccccc1 (centres undefined) | -0.85
19 | O=C(Nc1ccccc1)Oc1ccccc1Br | 2.27
20 | CC(=O)C1=C(O)C(=O)N(C)C1c1ccccc1 (centres undefined) | 0.22
21 | COc1cccc(CN2CCc3ccccc3C2)c1 | 0.17
22 | COc1ccccc1NC(=O)c1cccc(C)c1 | -0.655
23 | Cc1ccccc1OCC(=O)Nc1ccc(F)cc1 | -0.4
24 | Cc1ccc(S(=O)(=O)Nc2cccc3cccnc23)cc1 | -1.14

Two neighbouring entries out of the list so far:
Row | SMILES | T2 sensor activation Q score
11 | Clc1ccccc1CN1CCOCC1 | 0.745
12 | O=c1c(CN2CCN(c3ccccc3)CC2)coc2ccc(Cl)cc12 | 0.565
